These are yes or no findings as the source states them, for the method shown. A result given as binding can be weak or reduced; the word gives no strength.
Biological target: cynomolgus PD-1 recombinant protein (cynomolgus)
Test: HTRF binding assay

Binder | binding
Humabody® 1.1 (VHH) VHH: QVQLVESGGGLVKPGGSLRLSCAASGFTFSDYTMTWMRQAPGKGLEWVSYISTGGTIKYYTDSVKGRFTISRDNAKNSLYLQMNSLRADDTAVYYCAREAPLRLGESPHDAFDIWGQGTMVTVSS | binds
Humabody® 1.57 (VHH) VHH: QVQLVESGGGLVKPGGSLRLSCAASGFTFSDNSMTWMRQAPGKGLEWVSYISSGGGVIFYADSVKGRFTISRDNAKNSLYLQMNSLRADDTAVYYCAREAPLRLGESPHDAFDISGQGTMVTVSS | binds
Humabody® 1.92 (VHH) VHH: EVQLVESGGGLVKPGGSLRLSCAASGFTFSDESMTWMRQAPGKGLEWVSYISSGGGVKFYADSVKGRFTISRDNAKNSLYLQMNSLRAEDTAVYYCAREAPLRLGESPHDAFDISGQGTMVTVSS | binds
1.57-4GS-1.57 (protein) QVQLVESGGGLVKPGGSLRLSCAASGFTFSDNSMTWMRQAPGKGLEWVSYISSGGGVIFYADSVKGRFTISRDNAKNSLYLQMNSLRADDTAVYYCAREAPLRLGESPHDAFDISGQGTMVTVSSGGGGSGGGGSGGGGSGGGGSQVQLVESGGGLVKPGGSLRLSCAASGFTFSDNSMTWMRQAPGKGLEWVSYISSGGGVIFYADSVKGRFTISRDNAKNSLYLQMNSLRADDTAVYYCAREAPLRLGESPHDAFDISGQGTMVTVSS | binds

Source: patent publication US20230357405A1
